Results published in patent publication US20170137481A1, “Use of Cell-Permeable Peptide Inhibitors of the JNK Signal Transduction Pathway for the Treatment of Various Diseases” (Xigen Inflammation Ltd., priority 2014, published 2017).
For at least one compound, name, drawing or mass did not settle the structure.

Legend:
[1] = tested on: MPTP-induced PD in C57BL/6N mice; conditions: cited from earlier work
[2] = tested on: Endotoxin-Induced Uveitis in Lewis rats; assay: Endotoxin-Induced Uveitis (EIU), action duration after subconjunctival administration; assay type: in vivo, rat; conditions: 20 μg/eye; 24 h after LPS
Source text: The aim of this study was to evaluate the duration of action of SDD-1002 following sub-conjunctival administration in a rat model of EIU.
90 male Lewis rats were used, age approximately 6-8 weeks (at the induction), 4 weeks (at the injection for the Day-28), 5 weeks (at the injection for the Day-21), 6 weeks (at the injection for the Day-14, Day-7 and for the Day 0), 7 weeks (at the injection for Day-2 and Day-1), and housed by five in standard cages. Animals were allocated to the following groups: Group No. Treatment Dose Time-point
Thus, each animal received a single subconjunctival injection of either XG-102 (20 μg/eye), saline (0.9% NaCl) vehicle control or Solumedrol® (20 μg/eye) into each eye. […]
Animals were examined with a slit-lamp before XG-102 administration (baseline) before induction (Day 0) then 24 h after induction (Day 1). […] Briefly, flare, miosis and hypopion were scored for absence (0), or presence (1), iris hyperemia and cells in the anterior chamber were scored for absence (0), or mild (1) or severe presence (2). […]
At the end of the evaluation (24 h after induction), animals were euthanized by intravenous injection of overdosed pentobarbital. […] For quantification of Cellular Infiltration in Aqueous Humor (AH), the sample was diluted 10-fold with PBS before detection. The number of infiltrated cells was manually counted after Giemsa staining under microscope.

Row | Compound | protection of dopaminergic neurons [1] | number of infiltrating cells in aqueous humor versus vehicle [2]
1 | Oc1c2ccccc2c2c3c(cccc13)N=N2 [SP600125] | protect dopaminergic neurons from apoptosis | 
2 | C[C@H]1C[C@@H]2[C@H]([C@@H](O)C[C@@]3(C)[C@H]2CC[C@]3(O)C(=O)CO)[C@@]2(C)C=CC(=O)C=C12 [methylprednisolone, Methylprednisolone, reference compound] |  | did not have significant difference in the number of infiltrating cells
